Measured values as given in the supplement of paper PMC10849652.
The list shows a part of the results.

By UniProt entry, the sequences of proteins in these tests, tags left out. Where a name states a change or a piece, a line headed by the entry shows the natural chain unless it says otherwise.
UniProt Q13428: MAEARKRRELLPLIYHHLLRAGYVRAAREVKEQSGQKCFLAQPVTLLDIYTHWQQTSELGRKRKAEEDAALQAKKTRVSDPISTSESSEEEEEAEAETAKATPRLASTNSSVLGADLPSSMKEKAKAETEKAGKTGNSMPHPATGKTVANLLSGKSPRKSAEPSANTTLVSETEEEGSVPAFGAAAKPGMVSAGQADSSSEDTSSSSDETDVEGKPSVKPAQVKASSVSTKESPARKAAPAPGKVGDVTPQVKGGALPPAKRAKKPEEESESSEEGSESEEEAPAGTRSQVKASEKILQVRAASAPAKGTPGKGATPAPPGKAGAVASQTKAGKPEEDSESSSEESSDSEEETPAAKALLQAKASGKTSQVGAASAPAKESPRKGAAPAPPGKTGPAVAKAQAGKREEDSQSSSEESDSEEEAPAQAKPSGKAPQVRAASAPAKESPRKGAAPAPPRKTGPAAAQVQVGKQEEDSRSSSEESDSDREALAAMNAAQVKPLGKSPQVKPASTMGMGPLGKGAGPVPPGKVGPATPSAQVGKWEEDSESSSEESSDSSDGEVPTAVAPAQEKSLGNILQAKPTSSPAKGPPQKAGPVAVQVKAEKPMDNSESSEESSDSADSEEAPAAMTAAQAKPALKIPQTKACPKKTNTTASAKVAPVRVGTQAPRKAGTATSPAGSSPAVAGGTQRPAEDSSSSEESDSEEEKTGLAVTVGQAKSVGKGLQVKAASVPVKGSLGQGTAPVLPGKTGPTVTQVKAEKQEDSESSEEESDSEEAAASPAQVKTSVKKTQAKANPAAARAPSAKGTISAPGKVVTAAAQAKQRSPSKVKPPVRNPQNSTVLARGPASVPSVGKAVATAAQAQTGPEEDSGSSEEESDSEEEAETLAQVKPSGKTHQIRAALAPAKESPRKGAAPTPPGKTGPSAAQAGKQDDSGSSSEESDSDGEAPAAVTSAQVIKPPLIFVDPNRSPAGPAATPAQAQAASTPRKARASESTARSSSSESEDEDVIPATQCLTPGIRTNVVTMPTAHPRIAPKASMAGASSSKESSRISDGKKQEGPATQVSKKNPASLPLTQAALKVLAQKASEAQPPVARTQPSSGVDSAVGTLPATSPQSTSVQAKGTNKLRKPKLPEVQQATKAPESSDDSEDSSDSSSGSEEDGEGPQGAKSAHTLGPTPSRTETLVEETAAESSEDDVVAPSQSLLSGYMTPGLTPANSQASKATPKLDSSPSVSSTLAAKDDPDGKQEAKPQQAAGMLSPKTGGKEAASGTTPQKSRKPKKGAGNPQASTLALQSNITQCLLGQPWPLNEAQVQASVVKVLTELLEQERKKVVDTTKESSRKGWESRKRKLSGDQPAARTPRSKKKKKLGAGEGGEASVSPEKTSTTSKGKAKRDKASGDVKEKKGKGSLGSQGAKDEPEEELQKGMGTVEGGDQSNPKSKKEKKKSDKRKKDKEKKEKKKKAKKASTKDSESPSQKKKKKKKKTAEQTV
UniProt Q15561, whole entry, looked up: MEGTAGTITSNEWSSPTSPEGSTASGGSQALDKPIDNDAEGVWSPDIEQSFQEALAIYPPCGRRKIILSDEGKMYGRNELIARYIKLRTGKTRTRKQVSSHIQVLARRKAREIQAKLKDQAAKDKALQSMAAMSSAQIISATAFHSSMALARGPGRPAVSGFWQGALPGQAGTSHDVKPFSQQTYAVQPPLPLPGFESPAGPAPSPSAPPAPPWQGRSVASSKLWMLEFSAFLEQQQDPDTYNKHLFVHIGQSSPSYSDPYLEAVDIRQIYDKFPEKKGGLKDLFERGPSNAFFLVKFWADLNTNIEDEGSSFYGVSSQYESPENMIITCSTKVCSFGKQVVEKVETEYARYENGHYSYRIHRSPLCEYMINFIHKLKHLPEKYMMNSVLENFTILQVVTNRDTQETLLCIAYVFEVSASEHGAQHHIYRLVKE
UniProt Q86WV5: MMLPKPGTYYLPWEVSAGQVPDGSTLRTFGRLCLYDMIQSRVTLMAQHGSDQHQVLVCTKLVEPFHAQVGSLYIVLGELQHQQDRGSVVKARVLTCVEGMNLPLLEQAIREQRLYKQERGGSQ
UniProt P0C1Z6, whole entry, looked up: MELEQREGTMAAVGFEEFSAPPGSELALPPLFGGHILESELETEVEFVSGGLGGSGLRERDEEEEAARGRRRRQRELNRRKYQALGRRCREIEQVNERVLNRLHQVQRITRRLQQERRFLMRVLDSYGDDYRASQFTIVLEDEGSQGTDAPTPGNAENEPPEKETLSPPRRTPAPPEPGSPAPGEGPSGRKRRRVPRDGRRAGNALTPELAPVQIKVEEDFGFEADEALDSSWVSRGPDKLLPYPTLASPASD
UniProt P10646, whole entry, looked up: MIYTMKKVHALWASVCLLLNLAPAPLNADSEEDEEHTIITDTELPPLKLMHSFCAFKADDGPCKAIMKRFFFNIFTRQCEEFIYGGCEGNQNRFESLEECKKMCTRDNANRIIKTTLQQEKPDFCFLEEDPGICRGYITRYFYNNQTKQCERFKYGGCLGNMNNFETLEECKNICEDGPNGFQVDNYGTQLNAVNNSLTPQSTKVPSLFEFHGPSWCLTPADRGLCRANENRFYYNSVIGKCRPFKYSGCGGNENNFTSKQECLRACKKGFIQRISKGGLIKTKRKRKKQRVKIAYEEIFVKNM
UniProt P24557: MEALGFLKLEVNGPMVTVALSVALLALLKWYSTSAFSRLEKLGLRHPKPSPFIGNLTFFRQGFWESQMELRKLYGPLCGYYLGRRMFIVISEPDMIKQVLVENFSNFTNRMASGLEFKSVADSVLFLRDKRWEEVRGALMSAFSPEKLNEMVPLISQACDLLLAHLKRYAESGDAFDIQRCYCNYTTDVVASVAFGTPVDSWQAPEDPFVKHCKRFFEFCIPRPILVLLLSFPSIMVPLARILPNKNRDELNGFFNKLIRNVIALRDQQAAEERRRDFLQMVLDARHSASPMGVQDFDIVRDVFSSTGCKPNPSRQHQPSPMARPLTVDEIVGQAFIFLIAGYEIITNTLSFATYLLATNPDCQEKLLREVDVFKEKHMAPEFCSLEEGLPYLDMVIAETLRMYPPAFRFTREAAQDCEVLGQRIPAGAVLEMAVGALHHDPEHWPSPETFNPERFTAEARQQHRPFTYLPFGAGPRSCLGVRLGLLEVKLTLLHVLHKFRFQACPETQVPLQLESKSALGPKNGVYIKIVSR
UniProt P21731: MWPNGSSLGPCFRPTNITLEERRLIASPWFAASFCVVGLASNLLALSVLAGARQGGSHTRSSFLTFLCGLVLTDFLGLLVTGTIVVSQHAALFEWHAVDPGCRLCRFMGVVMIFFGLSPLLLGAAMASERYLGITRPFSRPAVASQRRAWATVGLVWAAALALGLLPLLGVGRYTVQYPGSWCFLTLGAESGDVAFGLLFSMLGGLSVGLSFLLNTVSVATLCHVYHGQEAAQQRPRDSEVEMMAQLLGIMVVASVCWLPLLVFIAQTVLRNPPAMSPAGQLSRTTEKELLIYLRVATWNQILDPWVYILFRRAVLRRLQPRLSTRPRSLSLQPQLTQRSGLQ
UniProt Q9UI15: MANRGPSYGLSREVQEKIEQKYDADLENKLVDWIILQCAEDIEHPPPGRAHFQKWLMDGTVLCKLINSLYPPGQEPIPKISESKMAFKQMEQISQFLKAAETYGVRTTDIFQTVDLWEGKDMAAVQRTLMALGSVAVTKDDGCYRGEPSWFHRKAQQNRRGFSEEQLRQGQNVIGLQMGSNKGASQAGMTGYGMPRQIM
UniProt Q8IYN2: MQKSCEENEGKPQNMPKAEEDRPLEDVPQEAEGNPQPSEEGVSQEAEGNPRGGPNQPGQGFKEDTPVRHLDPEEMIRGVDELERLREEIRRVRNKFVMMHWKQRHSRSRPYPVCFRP
UniProt Q6PIY7: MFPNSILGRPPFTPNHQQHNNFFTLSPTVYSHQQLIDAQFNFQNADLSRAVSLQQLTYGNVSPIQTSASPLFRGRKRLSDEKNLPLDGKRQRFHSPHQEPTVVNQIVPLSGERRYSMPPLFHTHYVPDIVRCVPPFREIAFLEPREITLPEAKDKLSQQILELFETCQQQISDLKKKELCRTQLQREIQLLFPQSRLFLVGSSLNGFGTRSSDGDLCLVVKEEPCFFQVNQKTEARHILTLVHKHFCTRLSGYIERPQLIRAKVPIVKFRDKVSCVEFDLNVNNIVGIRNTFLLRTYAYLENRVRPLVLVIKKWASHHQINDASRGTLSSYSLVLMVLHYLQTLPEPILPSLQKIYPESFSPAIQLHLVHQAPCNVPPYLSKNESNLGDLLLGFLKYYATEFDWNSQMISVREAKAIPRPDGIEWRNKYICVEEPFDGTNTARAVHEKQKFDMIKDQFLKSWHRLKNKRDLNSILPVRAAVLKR
UniProt Q6P1N9: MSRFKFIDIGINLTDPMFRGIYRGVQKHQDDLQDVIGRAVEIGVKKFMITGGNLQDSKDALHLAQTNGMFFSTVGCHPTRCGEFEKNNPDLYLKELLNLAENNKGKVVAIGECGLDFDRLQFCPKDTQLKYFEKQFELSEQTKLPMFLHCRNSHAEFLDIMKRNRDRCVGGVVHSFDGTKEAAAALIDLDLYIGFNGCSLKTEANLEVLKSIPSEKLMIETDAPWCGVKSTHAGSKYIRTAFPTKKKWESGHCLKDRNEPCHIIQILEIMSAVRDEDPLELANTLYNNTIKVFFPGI
UniProt Q96EI5: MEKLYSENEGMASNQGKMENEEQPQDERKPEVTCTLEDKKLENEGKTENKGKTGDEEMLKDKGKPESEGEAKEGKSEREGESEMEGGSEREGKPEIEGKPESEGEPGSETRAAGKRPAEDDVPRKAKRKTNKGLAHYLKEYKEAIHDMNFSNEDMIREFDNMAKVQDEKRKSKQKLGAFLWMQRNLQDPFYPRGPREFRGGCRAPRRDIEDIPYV
UniProt P20061: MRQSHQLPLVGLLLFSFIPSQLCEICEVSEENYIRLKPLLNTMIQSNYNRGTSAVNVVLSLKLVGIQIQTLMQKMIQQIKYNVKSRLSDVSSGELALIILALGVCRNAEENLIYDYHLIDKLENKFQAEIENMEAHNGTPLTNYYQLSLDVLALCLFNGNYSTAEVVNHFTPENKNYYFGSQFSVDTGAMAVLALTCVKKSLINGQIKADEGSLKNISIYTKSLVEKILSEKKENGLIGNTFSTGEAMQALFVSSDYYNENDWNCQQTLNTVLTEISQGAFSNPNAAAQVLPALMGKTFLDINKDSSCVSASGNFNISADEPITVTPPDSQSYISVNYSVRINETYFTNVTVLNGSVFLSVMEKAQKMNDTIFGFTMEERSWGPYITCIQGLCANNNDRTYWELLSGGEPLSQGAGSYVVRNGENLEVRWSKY
UniProt Q7Z6L1: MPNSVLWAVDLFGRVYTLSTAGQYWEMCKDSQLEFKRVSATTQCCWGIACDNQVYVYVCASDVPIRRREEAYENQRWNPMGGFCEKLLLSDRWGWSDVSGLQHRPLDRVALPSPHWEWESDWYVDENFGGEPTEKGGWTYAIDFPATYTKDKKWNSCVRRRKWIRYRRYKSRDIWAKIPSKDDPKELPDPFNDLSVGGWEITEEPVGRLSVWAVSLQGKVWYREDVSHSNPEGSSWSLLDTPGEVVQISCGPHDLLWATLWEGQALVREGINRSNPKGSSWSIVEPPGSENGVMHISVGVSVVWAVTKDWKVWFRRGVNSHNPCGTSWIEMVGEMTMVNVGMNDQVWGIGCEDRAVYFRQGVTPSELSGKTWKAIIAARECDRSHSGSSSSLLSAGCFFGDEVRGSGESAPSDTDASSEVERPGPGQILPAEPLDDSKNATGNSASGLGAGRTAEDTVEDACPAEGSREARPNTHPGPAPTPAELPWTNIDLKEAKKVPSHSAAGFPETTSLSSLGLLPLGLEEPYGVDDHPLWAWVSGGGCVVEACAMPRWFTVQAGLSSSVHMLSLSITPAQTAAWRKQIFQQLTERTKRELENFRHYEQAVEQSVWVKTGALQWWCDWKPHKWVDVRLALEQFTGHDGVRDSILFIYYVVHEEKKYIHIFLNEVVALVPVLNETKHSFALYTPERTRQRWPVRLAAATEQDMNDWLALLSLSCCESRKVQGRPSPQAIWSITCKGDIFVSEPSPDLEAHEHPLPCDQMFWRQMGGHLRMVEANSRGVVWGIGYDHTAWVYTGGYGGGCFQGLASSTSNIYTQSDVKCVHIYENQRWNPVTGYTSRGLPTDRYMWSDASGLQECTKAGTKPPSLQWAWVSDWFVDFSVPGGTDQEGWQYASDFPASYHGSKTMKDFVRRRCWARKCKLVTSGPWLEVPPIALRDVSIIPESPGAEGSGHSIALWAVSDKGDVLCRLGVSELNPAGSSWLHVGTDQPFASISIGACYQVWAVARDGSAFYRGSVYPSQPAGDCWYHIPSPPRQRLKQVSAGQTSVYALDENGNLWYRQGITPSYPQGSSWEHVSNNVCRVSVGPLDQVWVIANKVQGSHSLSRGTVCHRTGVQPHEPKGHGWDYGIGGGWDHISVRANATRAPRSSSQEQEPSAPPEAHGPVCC

Key:
Assay in all cases: log2 fold change, soluble protein after heating vs DMSO (PISA); higher = thermal stabilisation; K562 lysate, 10 uM; active = over 0.2 and 3.5 SD of the protein, either way, in both replicates (recomputed)
quisinostat = compound: Cn1cc(CNCC2CCN(c3ncc(C(=O)NO)cn3)CC2)c2ccccc21 [quisinostat]
How it was run: (§1)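 The values are log-two fold changes in thermal stability compared with solvent controls and come from duplicates. They were obtained by TMTpro 16plex LC-MS/MS, with channel sums equalised, on the supernatant after 21,000xg for 90 min. That supernatant came from crude K562 extract at 1 mg/mL protein treated with 10 μM compound for 30 min, heated for 3 min across 48°C-58°C, pooled and brought to 0.5% NP-40 at 4°C.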

[1] = compound: NC(=O)Nc1cc(-c2cccc(F)c2)sc1C(=O)N[C@H]1CCCNC1
How it was run: as §1

[2] = compound: NC(=O)c1cnc(N[C@@H]2CCCC[C@@H]2N)nc1Nc1cccc(-n2nccn2)c1
How it was run: as §1

[3] = compound: NC1(c2ccc(-c3nc4ccn5c(=O)[nH]nc5c4cc3-c3ccccc3)cc2)CCC1
How it was run: as §1

nilotinib = compound: Cc1cn(-c2cc(NC(=O)c3ccc(C)c(Nc4nccc(-c5cccnc5)n4)c3)cc(C(F)(F)F)c2)cn1 [nilotinib]
How it was run: as §1

[4] = compound: Cc1nc(Nc2n[nH]c3c2CN(C(=O)N[C@H](CN(C)C)c2ccccc2)C3(C)C)c2sccc2n1
How it was run: as §1

[5] = compound: Cc1ncc(-c2ccnc(Nc3ccc(S(C)(=O)=O)cc3)n2)n1C(C)C
How it was run: as §1

tipifarnib = compound: Cn1cncc1[C@@](N)(c1ccc(Cl)cc1)c1ccc2c(c1)c(-c1cccc(Cl)c1)cc(=O)n2C [tipifarnib]
How it was run: as §1

dasatinib = compound: Cc1nc(Nc2ncc(C(=O)Nc3c(C)cccc3Cl)s2)cc(N2CCN(CCO)CC2)n1 [dasatinib]
How it was run: as §1

[6] = compound: Cn1cc(-c2ccc3c(c2)CCN3C(=O)Cc2cccc(C(F)(F)F)c2)c2c(N)ncnc21
How it was run: as §1

Measured: log2 fold change

TCOF1 isoform 3 (UniProt Q13428)
inactive: quisinostat 0.116 | [1] 0.094 | [2] -0.121 | [3] -0.068

TEAD4 (UniProt Q15561)
inactive: [3] 0.237

TEN1 (UniProt Q86WV5)
inactive: nilotinib 0.126 | [4] -0.243 | [5] 0.216 | tipifarnib -0.075

TFPT (UniProt P0C1Z6)
inactive: dasatinib 0.009 | [6] 0.006 | [2] 0.023 | [3] -0.002

TFPI (UniProt P10646)
inactive: nilotinib -0.076 | [4] 0.04 | [5] -0.035 | quisinostat -0.088 | tipifarnib -0.025 | [1] -0.067 | [2] 0.035 | [3] 0.02

TFPI isoform 2 (UniProt P10646)
inactive: quisinostat -0.087 | [1] 0.082

TBXAS1 isoform 3 (UniProt P24557)
inactive: quisinostat 0.288 | [1] -0.117

TBXA2R (UniProt P21731)
inactive: quisinostat -0.016 | [1] -0.053 | [3] -0.153

TAGLN3 (UniProt Q9UI15)
inactive: [2] 0.117 | [3] 0.124

TCEAL8 (UniProt Q8IYN2)
inactive: dasatinib 0.061 | [6] 0.11 | quisinostat -0.106 | [1] 0.046

TAF8, A0A0A0MRR3
inactive: dasatinib 0.042 | [6] 0.081

TENT2 (UniProt Q6PIY7)
inactive: dasatinib 0.103 | [6] -0.035

TBC1D12 (UniProt O60347)
inactive: dasatinib 0.001 | [6] 0.006 | quisinostat -0.092 | [1] 0.046 | [2] -0.006 | [3] -0.006

Four neighbouring records already listed, quoted:
TBXAS1 isoform 3 (UniProt P24557)
inactive: quisinostat 0.288 | [1] -0.117

TBXA2R (UniProt P21731)
inactive: quisinostat -0.016 | [1] -0.053 | [3] -0.153

TAGLN3 (UniProt Q9UI15)
inactive: [2] 0.117 | [3] 0.124

TCEAL8 (UniProt Q8IYN2)
inactive: dasatinib 0.061 | [6] 0.11 | quisinostat -0.106 | [1] 0.046

Further records follow.

TATDN1 isoform 2 (UniProt Q6P1N9)
inactive: quisinostat -0.122 | [1] 0.018 | [2] 0.266 | [3] -0.064

TCEAL4 isoform 2 (UniProt Q96EI5)
inactive: dasatinib 0.029 | [6] -0.012 | quisinostat -0.023 | [1] 0.089 | [2] -0.001

TCN1 (UniProt P20061)
inactive: nilotinib 0.046 | [4] 0.022 | [5] 0.058 | quisinostat 0.183 | tipifarnib -0.027 | [1] -0.007 | [3] 0.168

TECPR1 isoform 4 (UniProt Q7Z6L1)
inactive: dasatinib -0.145 | [6] 0.045 | [2] 0.174 | [3] -0.048
